Test [1] concerns the target ATF6α (endogenous, uncleaved) (human (endogenous in HEK293)) (UniProt P18850). Nature of the test: native gel or EMSA. In general terms: Mobility shift assays separate free from complexed probe on a gel.
Test [2] shares this target. As to the kind of experiment: cross-linking.

Protein sequences, listed by entry. Tags and fused reporters are not part of them.
UniProt P18850: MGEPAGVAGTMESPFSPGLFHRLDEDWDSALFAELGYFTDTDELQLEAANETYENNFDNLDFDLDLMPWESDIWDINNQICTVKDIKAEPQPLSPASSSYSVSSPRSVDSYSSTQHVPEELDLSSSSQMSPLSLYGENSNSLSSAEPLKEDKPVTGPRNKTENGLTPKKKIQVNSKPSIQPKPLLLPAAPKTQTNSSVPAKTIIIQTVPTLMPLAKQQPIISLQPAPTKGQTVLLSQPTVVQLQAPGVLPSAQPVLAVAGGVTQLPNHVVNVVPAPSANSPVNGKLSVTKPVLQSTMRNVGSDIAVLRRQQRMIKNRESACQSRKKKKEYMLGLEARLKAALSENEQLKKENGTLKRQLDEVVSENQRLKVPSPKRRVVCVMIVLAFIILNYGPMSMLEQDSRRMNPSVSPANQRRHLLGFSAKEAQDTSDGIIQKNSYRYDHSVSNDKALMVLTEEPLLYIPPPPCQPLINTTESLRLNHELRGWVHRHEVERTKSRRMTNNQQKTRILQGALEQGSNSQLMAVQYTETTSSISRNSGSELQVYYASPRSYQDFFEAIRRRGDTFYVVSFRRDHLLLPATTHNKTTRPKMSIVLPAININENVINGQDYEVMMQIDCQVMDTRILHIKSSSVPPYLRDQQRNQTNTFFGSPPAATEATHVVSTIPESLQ

No constants are given. Whether binding was seen depends on the method and setting. For some assays here: In cells and extracts the contact can be indirect. Some entries that bind do so weakly or less than the wild type.

Regarding “ATF6α (endogenous, uncleaved) (from UniProt P18850 1-670)”, the binding entry in test [1] and in test [2] was “binds” throughout.

(Values after article doi:10.1101/189605.)
